This is one part of the list. Cut-off read from the data, not from the text of the source: active = 150% or more and inactive = the rest. Single values are uncertain, as repeats are few or missing.

This test concerns Staphylococcus aureus JE2-lux inside RAW 264.7 macrophages. Briefly: intracellular bacterial bioluminescence relative to DMSO vehicle; higher = higher intracellular bacterial metabolic activity. To be noted: 10 µM; treatment time 4 h; gentamicin 50 µg/ml.
With `NC(=O)C1(N2CCCCC2)CCN(c2ccc(NS(=O)(=O)c3ccccc3)c(C(=O)O)c2)CC1`, the intracellular bacterial bioluminescence is inactive: 102%. The figure for `COc1cccc2cc(C(=O)Nc3ccc(F)cc3)/c(=N/NS(=O)(=O)c3ccccc3)oc12` is inactive: 73.1%. As for `COc1ccc(C(=O)NCC(c2cccs2)N2CCc3ccccc3C2)cc1` (stereo unspecified), the figure is inactive: 105%. As for `O=C(Nc1ccc2c(c1)OCCO2)C(=O)Nc1cccc2cccnc12`, the figure is inactive: 96.9%; as for `CCCOC(=O)c1sc2nc3c(c(-c4ccco4)c2c1N)CCCC3`, inactive: 111%. As for `CSc1cccc2sc(Nc3cccc(C)c3)nc12`, the intracellular bacterial bioluminescence is inactive: 122%. As for `Cc1noc2ncnc(NCCN3CCCCC3C)c12` (stereo unspecified), the intracellular bacterial bioluminescence was inactive: 116%. The figure for `O=C1c2ccccc2-c2nn(C(=O)C3CCN(S(=O)(=O)c4cccs4)CC3)c3cccc1c23` is inactive: 112%.

In the case of `CC(=O)Nc1ccc(NC(=O)Cn2c(-c3nnc(C)o3)cc3ccccc32)cc1`, the intracellular bacterial bioluminescence was inactive: 123%.

Turning to `O=C(NCCS(=O)(=O)N1CCC2(CC1)OCCO2)c1ccc2c(c1)OCO2`, the intracellular bacterial bioluminescence was inactive: 132%. Turning to `Clc1ccc(-n2ncc3c(Cl)ncnc32)cc1`, the intracellular bacterial bioluminescence was inactive: 120%.

Turning to `CCc1cc2ccc(C)c(C)c2nc1SCC(=O)NNC(=O)c1ccco1`, the intracellular bacterial bioluminescence was inactive: 71.3%. As for `NC(=O)N/N=C/c1sc(=O)n(Cc2cccc(C(=O)O)c2)c1Cl`, the figure is inactive: 108%. As for `O=C1C=C(Nc2ccccc2)C(=O)N1c1ccccc1Cl`, the figure is inactive: 125%; as for `COc1ccc(CCNC(=O)Cc2csc3nc(-c4ccc(F)cc4)cn23)cc1OC`, inactive: 79.3%. On to `O=C(Nc1cccc2c1CCCC2)c1cc(-c2ccccn2)[nH]n1`, for which the intracellular bacterial bioluminescence is inactive: 76.6%. The figure for `CCn1c(SCc2nc(-c3cccc(Cl)c3)no2)nc2cc3c(cc2c1=O)OCO3` is inactive: 104%. Regarding `COc1ccc(CNC(=O)c2cc(-c3ccccc3F)nc3[nH]nc(-c4cccc(OC)c4)c23)cc1`, the intracellular bacterial bioluminescence is inactive: 92.5%. Take `Cc1onc(-c2ccccc2Cl)c1C(=O)Oc1cc(N)n(S(=O)(=O)c2ccc(F)cc2)n1`: the intracellular bacterial bioluminescence is inactive: 90.9%.

Regarding `CC(C)c1ccc(Cc2cnc(N3C(=N)SCC3=O)s2)cc1`, the intracellular bacterial bioluminescence was inactive: 63.8%. As for `O=C(CSc1nc(=O)n(CCO)c2c1CCCC2)Nc1ccccc1[N+](=O)[O-]`, the figure is inactive: 113%; as for `O=C(CN1C(=O)c2ccccc2C1=O)Nc1ccc2c(c1)C(=O)NC2=O`, inactive: 2.55%; as for `CCc1cccc(NC(=O)c2c(-c3ccccc3)nnc3ccccc23)c1`, inactive: 98.5%. Take `CCS(=O)(=O)c1ccc(C(=O)/N=c2/sc3c(C)ccc(OC)c3n2C)cc1`: the intracellular bacterial bioluminescence is inactive: 122%. Regarding `Cc1nn2c(C)c(C(=O)NCc3ccc(F)cc3)cnc2c1-c1ccccc1`, the intracellular bacterial bioluminescence was inactive: 119%. Consider `O=C(O)CCc1nc(N2CCCCC2)c2c(-c3ccc(F)cc3)noc2n1`, for which the intracellular bacterial bioluminescence is inactive: 99.9%. The figure for `Cc1nc2ccc(C(=O)NC(c3ccncc3)c3ccccc3C)cc2s1` (stereo unspecified) is inactive: 118%.

As to `O=c1[nH]cncc1-c1nc(-c2ccc(Cl)cc2)no1`, the intracellular bacterial bioluminescence was inactive: 76.7%. As for `CCOc1ccc(CNC(=O)CCn2cnc3onc(-c4ccccc4)c3c2=O)cc1`, the figure is inactive: 62.6%; as for `Cn1c(SCC(=O)N/N=C/c2ccc(Cl)cc2)nc2ccccc21`, inactive: 83%. Consider `O=C(NCCc1ccccc1)c1cccnc1Nc1ccc2c(c1)OCCO2`, for which the intracellular bacterial bioluminescence was inactive: 68.3%. The figure for `COc1cc(NS(=O)(=O)c2ccc(NC(=O)Nc3ccccc3)cc2)nc(OC)n1` is inactive: 106%; for `O=C(NCc1ccc2[nH]c3c(c2c1)CCCC3)C(=O)c1c[nH]c2ccccc12` it is inactive: 89.3%.

In the case of `COc1ccc(NC(=O)Cn2c(=O)n(-c3ccccc3)c(=O)c3oc4ccccc4c32)cc1OC`, the intracellular bacterial bioluminescence was inactive: 116%. Turning to `Cc1cc(=O)n2nc(-c3ccc(Cl)cc3)nc2n1CC(=O)Nc1ccccc1F`, the intracellular bacterial bioluminescence is inactive: 107%. As for `CCOC(=O)c1ccc(Nc2[nH]c(=O)c3ccccc3c2C(=O)c2ccncc2)cc1`, the intracellular bacterial bioluminescence is inactive: 113%. Regarding `NC(=O)CSC1=NS(=O)(=O)c2cc(Cl)ccc2N1`, the intracellular bacterial bioluminescence was inactive: 149%. With `Cc1cc(NC(=O)C2CCN(S(=O)(=O)c3cc(-c4noc(C)n4)sc3C)CC2)c2ccccc2n1`, the intracellular bacterial bioluminescence is inactive: 109%.

`CCCNC(=O)NCC(c1cccnc1)c1c[nH]c2ccccc12` (stereo unspecified): the intracellular bacterial bioluminescence was inactive: 101%. As for `CCNc1nc(Nc2ccc(Cl)cc2)c2cnn(C)c2n1`, the figure is inactive: 63.4%. `CCCCC1CCC(C(=O)Nc2cc(C)nn2-c2ncnc3c2cnn3-c2ccc(Cl)cc2)CC1` (stereo unspecified): the intracellular bacterial bioluminescence was inactive: 147%. The figure for `CC1CCc2c(sc(NC(=O)C(C)Oc3cccc(Br)c3)c2C#N)C1` (stereo unspecified) is inactive: 101%. Take `CCCc1cc(C(=O)Nc2ccc3c(c2)CC(C)N3C(C)=O)[nH]n1` (stereo unspecified): the intracellular bacterial bioluminescence is inactive: 85.4%.

`O=C(COc1ccc2ccccc2c1)Nc1nnc2n1CCS2`: the intracellular bacterial bioluminescence is inactive: 122%.

Regarding `N#CC1=C(N)OC2=C(C(=O)CC(c3ccccc3)C2)C1C1CCCCC1` (stereo unspecified), the intracellular bacterial bioluminescence was inactive: 74.7%. As for `COc1ccc(Cn2ccc3nc(C)c(C(=O)NCc4ccc(Cl)cc4)cc3c2=O)cc1`, the figure is inactive: 104%; as for `Nn1c(SCC(=O)N2CCCCCC2)nncc1=O`, inactive: 116%. For `CC(=O)Nc1cccc(NC(=O)CSc2nc(=O)n3cc(Cl)ccc3n2)c1`, the intracellular bacterial bioluminescence was inactive: 89.2%.

On to `CC1CCCCN1S(=O)(=O)c1ccc(C(=O)Nc2ccccc2Oc2ccccc2)cc1` (stereo unspecified), for which the intracellular bacterial bioluminescence was inactive: 131%. As for `COc1ccc2cc(CCNC(=O)c3ccc([N+](=O)[O-])cc3)c(=O)[nH]c2c1`, the figure is inactive: 67.9%.

With `CCOC(=O)c1c(NC(=O)CSc2ccccc2N)sc(C(C)=O)c1C`, the intracellular bacterial bioluminescence is inactive: 84.6%. `C=CCNC(=O)c1ccc(COc2ccccc2Cl)o1`: the intracellular bacterial bioluminescence was inactive: 65.6%. The figure for `C=CCn1c(SCC(=O)NCc2cccnc2)nc2sc3c(c2c1=O)CCCC3` is inactive: 51.5%. The figure for `CC(=O)NC(=O)c1cc2cc(Cl)ccc2o/c1=N\c1cccc2ccccc12` is inactive: 97.8%.

On to `CCS(=O)(=O)c1ccccc1C(=O)Nc1ccc(C)cc1C(=O)c1ccccc1`, for which the intracellular bacterial bioluminescence was inactive: 124%.

Regarding `Cc1c(-c2ccccc2)n[nH]c1C(=O)Nc1cccc(C(=O)N2CCCCC2)c1`, the intracellular bacterial bioluminescence was inactive: 79.2%.

As to `COc1ccc(/C(C)=N/N2CC(=O)Nc3ccccc32)cc1`, the intracellular bacterial bioluminescence is inactive: 102%.

For the compound `COc1ccccc1CNC(=O)CSc1nnc2c(n1)[nH]c1ccc(F)cc12`, the intracellular bacterial bioluminescence was inactive: 95.6%. With `CCOCCCNC(=O)c1ncoc1-c1ccc(F)cc1`, the intracellular bacterial bioluminescence was inactive: 79.4%.

With `O=C(O)CCCNc1ncnc2c1oc1ccccc12`, the intracellular bacterial bioluminescence was inactive: 90.2%. Consider `O=C(CSc1ncc(S(=O)(=O)c2ccc(Cl)cc2)c(=O)[nH]1)Nc1ccc2c(c1)OCCO2`, for which the intracellular bacterial bioluminescence was inactive: 82.8%. For `NS(=O)(=O)c1ccc(NC2=NC(=O)C(CC(=O)O)S2)cc1` (stereo unspecified), the intracellular bacterial bioluminescence was inactive: 115%. With `C#CCOc1cccc(C2CC(=O)Nc3c2cnn3-c2nc3ccccc3s2)c1` (stereo unspecified), the intracellular bacterial bioluminescence was inactive: 101%.

Turning to `O=C(CSc1ncnc2c1sc1nc3ccccc3cc12)Nc1ccc2c(c1)OCO2`, the intracellular bacterial bioluminescence is inactive: 43.6%. The figure for `O=C1C2ON(c3ccc(Cl)cc3)C(c3ccc(F)cc3)C2C(=O)N1c1ccc([N+](=O)[O-])cc1` (stereo unspecified) is inactive: 129%. With `O=C(C1=C(O)C(=O)N(c2nncs2)C1c1ccc(F)cc1)c1cccs1` (stereo unspecified), the intracellular bacterial bioluminescence is inactive: 83.4%. As for `Cc1nc(SCC(=O)Nc2cccc(F)c2)[nH]c(=O)c1C`, the intracellular bacterial bioluminescence was inactive: 101%. In the case of `Cc1sc2nc(SCC(=O)Nc3ccc(S(N)(=O)=O)cc3)[nH]c(=O)c2c1C`, the intracellular bacterial bioluminescence is inactive: 78%. With `CC(=O)C1=C(C)NC(SCC(=O)Nc2nccs2)=C(C#N)C1c1ccc(Cl)cc1` (stereo unspecified), the intracellular bacterial bioluminescence was inactive: 100%.

As for `CCOc1ccc(-n2c(=O)[nH]c3c(C(N)=O)nc(-c4ccc(C)o4)nc32)cc1`, the intracellular bacterial bioluminescence is inactive: 108%. Regarding `COc1ccc(OC)c2sc(NNC(=O)c3c(F)cccc3F)nc12`, the intracellular bacterial bioluminescence was inactive: 79.5%. Turning to `COc1ccc(NC(=O)CC2NC(=O)NC2=O)cc1` (stereo unspecified), the intracellular bacterial bioluminescence is inactive: 91.1%. As for `O=C(NC1CC(=O)N(c2ccc3c(c2)OCCO3)C1)N1CCN(c2ccccc2F)CC1` (stereo unspecified), the figure is inactive: 132%. Turning to `CC(=O)Nc1nc(C(=O)Nc2ccc3nc(C)[nH]c3c2)cs1`, the intracellular bacterial bioluminescence was inactive: 101%. With `Fc1ccc2nc(Nc3nc(-c4cccs4)cs3)sc2c1`, the intracellular bacterial bioluminescence was inactive: 97.3%. As for `Cc1sc2nc(C)n(C3CCN(C(=O)c4n[nH]c5c4CCC5)CC3)c(=O)c2c1C`, the figure is inactive: 96.1%; as for `Cc1cccc(CSC2=NCCN2C(=O)c2cccs2)c1`, inactive: 50%; as for `COc1ccc2oc(=O)c(/C(N)=N/NC(=O)c3ccncc3)cc2c1`, inactive: 96.3%. The figure for `CCOc1ccc(NC(=O)c2nc3c(=O)n(Cc4ccccc4C)c4cc(C)ccc4n3n2)cc1` is inactive: 105%.

For `COc1cc2nc(NC(=O)c3cc4cc([N+](=O)[O-])ccc4s3)sc2cc1OC`, the intracellular bacterial bioluminescence was inactive: 100%. As for `O=c1nc(SCc2cccc3ccccc23)c2c(n1CCO)CCCC2`, the intracellular bacterial bioluminescence was inactive: 118%. The figure for `COC(=O)c1ccc(NC(=O)CCN2C(=O)CSC2=O)cc1` is inactive: 78.3%; for `COc1ccc(CCNc2nccn(Cc3ccc(Cl)cc3)c2=O)cc1OC` it is inactive: 6.08%; for `CC(C)C(C(=O)Nc1ccccc1)N1C(=O)c2ccccc2C1=O` (stereo unspecified) it is inactive: 92.7%.

For `Cc1ccc(C)c2[nH]c(=O)c(CCNC(=S)NCCn3ccc4ccccc43)cc12`, the intracellular bacterial bioluminescence was inactive: 82.4%. As to `Cc1nc(Oc2cccc(Cl)c2)c2c3c(sc2n1)CCCC3`, the intracellular bacterial bioluminescence is inactive: 82.8%. As for `Cc1nn2c(C)c(C(=O)Nc3ccc(C(C)C)cc3)cnc2c1-c1ccccc1`, the figure is inactive: 106%.

As to `N#CC1=C(S)N(c2ccccc2)C(c2ccc(-c3ccccc3[N+](=O)[O-])o2)NC1=O` (stereo unspecified), the intracellular bacterial bioluminescence was inactive: 94%.

For `CCc1c(C)nc(N2CCN(c3cccc(OC)c3)CC2)[nH]c1=O`, the intracellular bacterial bioluminescence is inactive: 96.4%.

As to `O=C(CN(Cc1ccco1)C(=O)C(=O)Nc1ccc2c(c1)OCCO2)NC1CCCC1`, the intracellular bacterial bioluminescence was inactive: 88.6%. Regarding `O=C(CCSc1ccc(F)cc1)Nc1nc2c(s1)CCC2`, the intracellular bacterial bioluminescence is inactive: 109%.

Source of the values: the supplement of paper PMC12578635.
